Test results published in US20230090014A1.
Results are given in words; binding and its absence hold for the method and conditions named. Some entries that bind do so weakly or less than the wild type.

Sequences of proteins named here, by UniProt entry; tags and fusion partners are left off.
UniProt Q9NZQ7: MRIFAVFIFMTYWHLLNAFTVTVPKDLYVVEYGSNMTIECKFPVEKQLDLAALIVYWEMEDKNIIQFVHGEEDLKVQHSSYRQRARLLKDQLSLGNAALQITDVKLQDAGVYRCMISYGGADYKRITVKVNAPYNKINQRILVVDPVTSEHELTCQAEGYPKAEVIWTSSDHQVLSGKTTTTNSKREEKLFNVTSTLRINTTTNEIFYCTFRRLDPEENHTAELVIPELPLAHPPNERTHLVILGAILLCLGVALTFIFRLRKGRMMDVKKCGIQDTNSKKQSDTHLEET

B1: AB6.12-IgG4P (antibody, V domains shown)
VH: QMQLVQSGAEVKKTGSSVKVSCKASGFNIKDYYLHWVRQAPGQALEWMGWIDPDQGDTEYAQKFQDRVTITRDRSMSTAYMELSSLRSEDTAMYYCNAAYGSSSYPMDYWGQGTTVTVSS
VL: NIQMTQSPSAMSASVGDRVTITCKASQDIHRYLSWFQQKPGKVPKHLIYRANRLVSGVPSRFSGSGSGTEFTLTISSLQPEDFATYYCLQYDEFPYTFGGGTKVEIKR
B2: Hu26T-31-PE (antibody, IgG4, V domains shown)
VH: QVQLVQSGAEVKKPGASVKVSCKASGYTFTDYYMNWVRQAPGQGLEWIGRIYPGSGLTYYNAKFKGRATVTADKSTSTVYMELSSLRSEDTAVYYCARTSYGSSFPHVWGQGTTVTVSS
VL: DIQMTQSPSSLSASVGDRVTITCKSSQSLLNVNDQKNYLAWYQQKPGKAPKLLIYFASTRESGVPSRFSGSGSGTDFTLTISSLQPEDFATYYCQQHYSTPLTFGQGTKLEIK
B3: Hu34-39-PE (antibody, IgG4, V domains shown)
VH: QVQLQESGPGLVKPSQTLSLTCKASGYTFTNYWITWVKQRPGQGLEWIGDITPGRGETNYNQKFKGRVTLTVDISASTAYMELSSLRSEDTAVYYCSRWGLRRGDYWGQGTSVTVSS
VL: EIVLTQSPGTLSLSPGERATLSCRASSSVSSSYLNWYQQKSGASPKLWIYSTSNLASGVPGRFSGSGSGTSYSLTISSVEAEDAATYYCQQYSGYPLTFGAGTKLEVK
B4: Hu58A-14-PE (antibody, IgG4, V domains shown)
VH: EVQLLESGGGLVQPGGSLRLSCAASGFIFSRFGMAWVRQTPDKRLEWVATISSGGSYTYYPDSVKGRLTISRDNAKTTLYLQMRSLKSEDTAMYYCARQGLLDYLYALDYWGQGTAVTVSS
VL: DIQMTQSPSSVSASIGDRVTITCKASQDINSFLAWFQQKPGKSPRPLIYRAYRLVDGVPSRFSGVGSGQDYSLTISSLDYEDLGIYYCQQYVEFPPTFGAGTMLELK
B5: SHS009PL-15 (antibody, V domains shown)
VH: EVQLQESGPGLAKPSQTLSLTCSVTGYSITSDYWNWIRKFPGNKLEYMGYISYTGSTYYNPSLKRRVSITRDTSKNNYYLQLNSVTTEDTATYYCARYRDWPGYFDVWGAGTTVTVSS
VL: DVQITQSPSYLAASPGETITINCRASKSIRKFLAWYQEKPGKTNKLLIYSGSTLQSGIPSRFSGSGSGTDFTLTISTLEPEDFAVYYCQHYNEYPFTFGGGTKLEIK
B6: SHS009PL-16 (antibody, V domains shown)
VH: QVQLQQSGAELARPGASVKMSCKASGYTFTRNTMHWIKQRPGQGLEWIGFIDPHNTYTRYNQKFKDRATLTADKSSSTAYMQLSSLSSEDSAVYYCARWPMDYWGQGTSVTVSS
VL: DIVMTQFPSSLAVTAGEKVTMRCKSSQSLSWSENQNNYLSWYQQKQGQPPKLLIYGASIRESWVPDRFTGSGSGTDFTLTISNVHAEDLGVYFCQHNHGSFLPYTFGGGTKLEIK
B7: SHS009PL-18 (antibody, V domains shown)
VH: QVQLQQPGAELVRPGTSVNLSCKASGYSFTSNWMNWVKQRPGQGLEWIGMIHLYDSETKLNPNFQDKATLTVDKSSSIAYMQLSSPTSEDSAVYYCARSAGNYRFAYWGQGTLVTVSA
VL: SIVMTQTPKFLPVTAEDRVTITCKASQSVSNEVAWYQQKPGQSPKLLIYSASSRYTGVPDRFIGGGSATDFTFTISSVQVEDLAVYFCQQHYSSPLTFGAGTKLELK

Key:
[1] = target: Cynomolgus CD47-His (cynomolgus); assay: ELISA on coated cynomolgus CD47-His, anti-human IgG HRP, OD450
[2] = target: Cynomolgus CD47-His (cynomolgus); assay: ELISA, cynomolgus CD47-His coated
[3] = target: PD-L1 molecules (screening ELISA of Example 12) (human) (UniProt Q9NZQ7); assay: ELISA of hybridoma supernatant, binding to PD-L1 molecules

| Binder | binding [1] | binding [2] | binding [3] |
| --- | --- | --- | --- |
| B1 | binds | binds | – |
| B2 | binds | binds | – |
| B3 | binds | binds | – |
| B4 | binds | binds | – |
| B5 | – | – | binds |
| B6 | – | – | binds |
| B7 | – | – | binds |
